Measured values: US12605459B2 (priority 2020, dated 2026)

Experiment: peptide synthesis

Substance	step yield (coupling step)	purity (crude or final not stated)	conjugation yield (conjugation step, TFA salt)
(2S)-2-(2-{2-[(2R)-6-Azido-2-({[(9H-fluoren-9-yl)methoxy]carbonyl}amino)hexanamido]acetamido}acetamido)-3-phenylpropanoic Acid	76%		
COT-GGG-P3 (Gly-NHCH2O-Dxd) [LP3]		99%	36%
DIBAC-GGF-P3 (Gly-NHCH2O-Dxd)		99%	
